# Assay results from the supplement of paper PMC10849652.
# Amino acid sequences for entries named in this document (tags omitted). A change or cut given only in a name is not applied to a line headed by its entry.
# UniProt Q5VVQ6: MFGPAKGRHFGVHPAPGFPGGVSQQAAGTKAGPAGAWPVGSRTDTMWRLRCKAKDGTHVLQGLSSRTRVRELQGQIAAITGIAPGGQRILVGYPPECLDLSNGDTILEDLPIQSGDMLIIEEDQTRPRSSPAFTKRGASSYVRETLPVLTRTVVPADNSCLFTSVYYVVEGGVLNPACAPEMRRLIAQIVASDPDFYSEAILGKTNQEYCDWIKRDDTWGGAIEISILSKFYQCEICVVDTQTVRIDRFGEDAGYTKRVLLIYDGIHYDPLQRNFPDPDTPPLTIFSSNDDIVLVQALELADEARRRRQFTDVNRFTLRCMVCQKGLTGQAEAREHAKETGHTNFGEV
# UniProt Q96TA2: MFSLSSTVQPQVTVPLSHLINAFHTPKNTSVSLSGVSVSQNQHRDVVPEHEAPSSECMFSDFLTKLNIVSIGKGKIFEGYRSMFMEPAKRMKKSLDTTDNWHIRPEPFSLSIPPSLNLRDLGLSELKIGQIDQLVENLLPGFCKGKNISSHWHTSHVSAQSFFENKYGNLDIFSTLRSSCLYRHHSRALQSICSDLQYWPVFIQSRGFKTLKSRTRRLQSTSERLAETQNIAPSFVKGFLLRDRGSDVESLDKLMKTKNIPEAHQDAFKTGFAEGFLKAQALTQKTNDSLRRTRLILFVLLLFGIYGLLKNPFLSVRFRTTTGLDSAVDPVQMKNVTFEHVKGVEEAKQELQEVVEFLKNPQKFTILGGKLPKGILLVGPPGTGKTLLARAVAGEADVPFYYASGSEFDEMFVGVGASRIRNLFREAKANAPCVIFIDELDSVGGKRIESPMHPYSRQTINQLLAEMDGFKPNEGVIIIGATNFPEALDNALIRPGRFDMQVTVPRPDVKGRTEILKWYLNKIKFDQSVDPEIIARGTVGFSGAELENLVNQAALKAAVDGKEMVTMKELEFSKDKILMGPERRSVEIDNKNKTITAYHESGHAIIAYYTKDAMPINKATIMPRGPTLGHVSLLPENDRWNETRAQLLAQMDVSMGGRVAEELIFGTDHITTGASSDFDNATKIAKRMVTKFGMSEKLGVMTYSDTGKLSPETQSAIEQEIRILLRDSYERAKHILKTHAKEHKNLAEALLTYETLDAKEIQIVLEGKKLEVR
# UniProt Q8N5P1: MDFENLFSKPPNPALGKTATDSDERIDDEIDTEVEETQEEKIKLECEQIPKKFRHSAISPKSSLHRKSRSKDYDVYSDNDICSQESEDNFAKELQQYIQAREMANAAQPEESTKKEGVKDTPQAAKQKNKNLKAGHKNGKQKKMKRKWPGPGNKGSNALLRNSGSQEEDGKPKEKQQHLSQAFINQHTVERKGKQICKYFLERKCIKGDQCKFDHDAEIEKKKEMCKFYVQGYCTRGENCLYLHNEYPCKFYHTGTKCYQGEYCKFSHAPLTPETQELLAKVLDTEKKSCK
# UniProt O95405: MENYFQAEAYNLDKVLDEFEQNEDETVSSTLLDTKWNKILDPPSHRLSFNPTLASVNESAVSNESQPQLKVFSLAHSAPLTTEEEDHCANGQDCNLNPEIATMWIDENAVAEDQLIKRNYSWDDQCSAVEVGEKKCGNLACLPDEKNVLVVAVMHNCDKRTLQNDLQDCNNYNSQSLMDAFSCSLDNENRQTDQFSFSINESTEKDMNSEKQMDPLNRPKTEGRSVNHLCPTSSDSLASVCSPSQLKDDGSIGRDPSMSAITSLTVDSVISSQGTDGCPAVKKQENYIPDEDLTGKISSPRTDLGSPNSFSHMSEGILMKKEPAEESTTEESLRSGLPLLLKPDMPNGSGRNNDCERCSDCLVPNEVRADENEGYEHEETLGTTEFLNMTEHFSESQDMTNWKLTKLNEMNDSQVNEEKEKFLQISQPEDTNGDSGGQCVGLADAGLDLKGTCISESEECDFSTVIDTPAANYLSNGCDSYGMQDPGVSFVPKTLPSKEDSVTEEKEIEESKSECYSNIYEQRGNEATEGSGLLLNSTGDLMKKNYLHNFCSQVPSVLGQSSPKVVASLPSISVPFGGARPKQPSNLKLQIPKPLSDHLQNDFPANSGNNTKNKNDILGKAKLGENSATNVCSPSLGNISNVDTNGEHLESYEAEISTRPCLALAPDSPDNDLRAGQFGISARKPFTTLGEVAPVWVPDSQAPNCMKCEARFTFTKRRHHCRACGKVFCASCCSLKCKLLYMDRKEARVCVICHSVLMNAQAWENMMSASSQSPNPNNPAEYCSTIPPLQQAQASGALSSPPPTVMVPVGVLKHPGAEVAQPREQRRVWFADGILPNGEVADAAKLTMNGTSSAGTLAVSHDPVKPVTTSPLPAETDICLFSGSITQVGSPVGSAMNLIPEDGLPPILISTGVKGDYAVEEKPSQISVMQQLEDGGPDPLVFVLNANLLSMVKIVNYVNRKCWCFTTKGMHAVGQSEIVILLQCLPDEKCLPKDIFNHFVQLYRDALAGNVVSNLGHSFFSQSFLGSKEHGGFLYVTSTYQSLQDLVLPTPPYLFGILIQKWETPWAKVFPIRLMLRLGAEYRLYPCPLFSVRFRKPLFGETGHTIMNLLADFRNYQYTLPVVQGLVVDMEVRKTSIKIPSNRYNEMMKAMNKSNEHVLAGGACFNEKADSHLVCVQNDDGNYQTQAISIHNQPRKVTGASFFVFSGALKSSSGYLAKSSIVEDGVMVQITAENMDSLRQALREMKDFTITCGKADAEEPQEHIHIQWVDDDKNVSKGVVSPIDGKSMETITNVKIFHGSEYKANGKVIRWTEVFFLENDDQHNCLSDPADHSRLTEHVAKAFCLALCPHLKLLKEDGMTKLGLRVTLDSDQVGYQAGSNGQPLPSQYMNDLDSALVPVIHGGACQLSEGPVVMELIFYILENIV
# UniProt Q86VM9: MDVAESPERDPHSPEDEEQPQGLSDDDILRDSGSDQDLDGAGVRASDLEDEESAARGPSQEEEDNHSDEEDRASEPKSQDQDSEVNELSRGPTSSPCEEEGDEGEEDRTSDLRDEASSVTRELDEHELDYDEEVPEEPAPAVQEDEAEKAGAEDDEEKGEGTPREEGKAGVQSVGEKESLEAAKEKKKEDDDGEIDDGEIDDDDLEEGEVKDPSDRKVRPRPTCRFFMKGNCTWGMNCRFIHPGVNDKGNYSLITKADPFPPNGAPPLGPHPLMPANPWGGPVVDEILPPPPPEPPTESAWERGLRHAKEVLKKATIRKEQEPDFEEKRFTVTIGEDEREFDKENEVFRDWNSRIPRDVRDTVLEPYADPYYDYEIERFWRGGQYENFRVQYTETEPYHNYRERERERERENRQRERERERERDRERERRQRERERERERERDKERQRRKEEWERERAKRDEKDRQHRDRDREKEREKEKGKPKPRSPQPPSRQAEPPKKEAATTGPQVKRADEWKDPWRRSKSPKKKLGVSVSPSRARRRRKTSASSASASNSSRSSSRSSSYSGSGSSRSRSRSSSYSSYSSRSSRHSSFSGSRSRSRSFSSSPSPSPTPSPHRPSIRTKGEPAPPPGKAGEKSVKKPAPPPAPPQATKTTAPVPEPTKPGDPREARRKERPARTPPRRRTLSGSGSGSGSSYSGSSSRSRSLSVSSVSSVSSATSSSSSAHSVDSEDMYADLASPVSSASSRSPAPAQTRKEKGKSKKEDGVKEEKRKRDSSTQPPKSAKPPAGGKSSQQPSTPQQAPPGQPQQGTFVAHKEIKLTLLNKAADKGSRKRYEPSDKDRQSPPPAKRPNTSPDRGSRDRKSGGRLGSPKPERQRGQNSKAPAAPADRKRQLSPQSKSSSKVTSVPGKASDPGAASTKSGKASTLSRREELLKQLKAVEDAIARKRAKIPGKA
# UniProt Q96GY0: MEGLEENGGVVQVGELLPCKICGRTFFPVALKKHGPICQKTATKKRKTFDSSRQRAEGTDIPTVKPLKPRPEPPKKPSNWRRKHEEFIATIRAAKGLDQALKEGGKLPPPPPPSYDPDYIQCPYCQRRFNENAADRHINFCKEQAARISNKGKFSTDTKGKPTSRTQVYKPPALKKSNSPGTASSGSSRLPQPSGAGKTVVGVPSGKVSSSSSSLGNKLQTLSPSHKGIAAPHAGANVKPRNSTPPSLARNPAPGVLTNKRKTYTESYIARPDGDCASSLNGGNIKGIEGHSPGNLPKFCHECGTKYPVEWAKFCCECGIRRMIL
# UniProt Q8N4Q0: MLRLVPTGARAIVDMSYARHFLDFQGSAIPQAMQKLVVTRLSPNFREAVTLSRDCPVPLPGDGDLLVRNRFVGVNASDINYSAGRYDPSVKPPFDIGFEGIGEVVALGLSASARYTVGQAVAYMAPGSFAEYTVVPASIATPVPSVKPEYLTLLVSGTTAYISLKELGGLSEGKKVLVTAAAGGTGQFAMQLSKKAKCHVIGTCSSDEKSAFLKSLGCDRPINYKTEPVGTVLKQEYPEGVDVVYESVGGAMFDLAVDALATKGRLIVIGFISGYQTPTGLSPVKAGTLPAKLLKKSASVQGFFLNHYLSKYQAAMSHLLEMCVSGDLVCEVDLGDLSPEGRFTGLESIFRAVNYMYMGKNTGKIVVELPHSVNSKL
# UniProt Q9C0B5: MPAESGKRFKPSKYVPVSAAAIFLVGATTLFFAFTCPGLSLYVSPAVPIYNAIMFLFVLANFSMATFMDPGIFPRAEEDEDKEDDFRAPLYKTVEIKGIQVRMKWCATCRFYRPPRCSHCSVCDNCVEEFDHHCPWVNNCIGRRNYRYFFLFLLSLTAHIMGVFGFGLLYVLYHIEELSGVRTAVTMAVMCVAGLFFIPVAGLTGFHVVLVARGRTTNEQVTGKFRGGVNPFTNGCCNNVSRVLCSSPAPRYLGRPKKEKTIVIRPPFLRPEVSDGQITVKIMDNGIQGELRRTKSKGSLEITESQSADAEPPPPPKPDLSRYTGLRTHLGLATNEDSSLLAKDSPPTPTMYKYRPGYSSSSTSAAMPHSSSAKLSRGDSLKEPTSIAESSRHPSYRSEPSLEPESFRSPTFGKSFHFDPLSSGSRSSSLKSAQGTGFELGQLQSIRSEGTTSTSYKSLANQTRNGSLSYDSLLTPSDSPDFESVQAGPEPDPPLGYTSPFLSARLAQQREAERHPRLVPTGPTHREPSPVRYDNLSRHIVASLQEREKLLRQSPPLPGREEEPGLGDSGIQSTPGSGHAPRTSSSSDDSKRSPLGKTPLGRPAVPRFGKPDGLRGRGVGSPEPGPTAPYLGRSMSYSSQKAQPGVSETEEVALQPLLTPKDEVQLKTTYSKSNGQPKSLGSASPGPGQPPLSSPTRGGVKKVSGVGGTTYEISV
# UniProt Q01831: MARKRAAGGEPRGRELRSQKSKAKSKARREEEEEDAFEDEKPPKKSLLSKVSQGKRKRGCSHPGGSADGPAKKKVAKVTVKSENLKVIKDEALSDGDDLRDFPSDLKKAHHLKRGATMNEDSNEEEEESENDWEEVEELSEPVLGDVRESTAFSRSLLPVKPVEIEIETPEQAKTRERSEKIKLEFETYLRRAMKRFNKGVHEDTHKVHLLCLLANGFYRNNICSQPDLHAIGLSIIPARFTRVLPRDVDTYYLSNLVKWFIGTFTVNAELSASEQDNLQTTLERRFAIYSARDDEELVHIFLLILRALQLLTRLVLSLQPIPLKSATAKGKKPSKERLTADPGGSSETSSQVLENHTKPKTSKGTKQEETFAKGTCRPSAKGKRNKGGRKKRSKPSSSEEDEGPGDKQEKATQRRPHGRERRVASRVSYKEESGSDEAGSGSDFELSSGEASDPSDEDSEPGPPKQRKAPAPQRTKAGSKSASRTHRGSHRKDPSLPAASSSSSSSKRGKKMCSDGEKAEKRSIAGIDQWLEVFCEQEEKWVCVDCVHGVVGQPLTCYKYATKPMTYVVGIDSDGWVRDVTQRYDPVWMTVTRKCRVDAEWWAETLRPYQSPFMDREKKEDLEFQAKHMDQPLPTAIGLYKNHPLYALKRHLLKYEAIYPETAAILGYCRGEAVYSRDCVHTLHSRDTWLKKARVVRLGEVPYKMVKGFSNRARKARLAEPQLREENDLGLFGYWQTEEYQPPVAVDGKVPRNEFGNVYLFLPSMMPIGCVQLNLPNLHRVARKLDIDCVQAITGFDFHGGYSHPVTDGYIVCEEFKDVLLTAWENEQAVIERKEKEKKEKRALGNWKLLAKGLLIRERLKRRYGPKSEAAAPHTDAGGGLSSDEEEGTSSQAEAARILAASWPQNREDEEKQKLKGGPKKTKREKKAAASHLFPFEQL
# UniProt Q969M3: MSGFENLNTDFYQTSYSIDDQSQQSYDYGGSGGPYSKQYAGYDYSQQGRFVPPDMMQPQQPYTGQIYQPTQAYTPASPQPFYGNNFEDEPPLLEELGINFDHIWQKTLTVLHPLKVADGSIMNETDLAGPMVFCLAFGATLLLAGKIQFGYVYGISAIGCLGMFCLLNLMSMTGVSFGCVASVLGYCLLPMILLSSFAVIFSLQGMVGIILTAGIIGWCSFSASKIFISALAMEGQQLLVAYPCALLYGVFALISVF
# The list shows a part of the results.
# Experiments:
# Experiment in all cases: log2 fold change, soluble protein after heating vs DMSO (PISA); higher = thermal stabilisation; K562 cells, 10 uM, 30 min; active = over 0.2 and 3.5 SD of the protein, either way, in both replicates (recomputed)
# [1] = compound: CC[C@@H]1C(=O)N(C)c2cnc(Nc3ccc(C(=O)NC4CCN(C)CC4)cc3OC)nc2N1C1CCCC1
# Outline: (§1)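 For each measurement, 10 μM compound was applied for 30 min to K562 cells at 2×10^6 cells/mL. Aliquots were heated for 3 min across 48°C-58°C, pooled, and extracted in PBS with 0.5% NP-40 at 4°C; the supernatant after 21,000xg for 90 min was soluble protein. This was quantified by TMTpro 16plex LC-MS/MS with channel sums equalised, and thermal stability was reported relative to control samples from duplicates, on a log2 fold-change scale.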
# volasertib = compound: CC[C@@H]1C(=O)N(C)c2cnc(Nc3ccc(C(=O)N[C@H]4CC[C@H](N5CCN(CC6CC6)CC5)CC4)cc3OC)nc2N1C(C)C [volasertib]
# Outline: as §1
# [2] = compound: CC[C@H](C)N1C=C(C2=C(C=C(C=C21)C3=CN=C(C=C3)N4CCNCC4)C(=O)NCC5=C(C=C(NC5=O)C)C)C
# Outline: as §1
# epoxomicin = compound: CC[C@H](C)[C@@H](C(=O)N[C@@H]([C@@H](C)O)C(=O)N[C@@H](CC(C)C)C(=O)[C@]1(CO1)C)NC(=O)[C@H]([C@@H](C)CC)N(C)C(=O)C [epoxomicin]
# Outline: as §1
# [3] = compound: CCn1c(C(=O)N(C2CC2)C2CC2)cc2c3c(ncn3C)c(Nc3cc(C)n(C)n3)nc21
# Outline: as §1
# [4] = compound: CCn1cc(-c2ccnc3[nH]c(-c4cccc(CN(C)C)c4)cc23)c(-c2ccc(NC(=O)N(C)C)cc2)n1
# Outline: as §1
# rosiglitazone = compound: CN(CCOC1=CC=C(C=C1)C[C@H]2C(=O)NC(=O)S2)C3=CC=CC=N3 (racemic) [rosiglitazone]
# Outline: as §1
# [5] = compound: CN1CCC(CNc2ccc3ncc(-c4cccc(OC(F)(F)F)c4)n3n2)CC1
# Outline: as §1
# sotrastaurin = compound: CN1CCN(c2nc(C3=C(c4c[nH]c5ccccc45)C(=O)NC3=O)c3ccccc3n2)CC1 [sotrastaurin]
# Outline: as §1
# alvocidib = compound: CN1CC[C@H](c2c(O)cc(O)c3c(=O)cc(-c4ccccc4Cl)oc23)[C@H](O)C1 [alvocidib]
# Outline: as §1
# Tubastatin A = compound: CN1CCc2c(c3ccccc3n2Cc2ccc(C(=O)NO)cc2)C1 [Tubastatin A]
# Outline: as §1
# [6] = compound: CNC(=O)C1=CC=CC=C1NC2=NC(=NC=C2Cl)NC3=C(C=C(C=C3)N4CCOCC4)OC
# Outline: as §1
# rucaparib = compound: CNCc1ccc(-c2[nH]c3cc(F)cc4c3c2CCNC4=O)cc1 [rucaparib]
# Outline: as §1
# encorafenib = compound: COC(=O)N[C@@H](C)CNc1nccc(-c2cn(C(C)C)nc2-c2cc(Cl)cc(NS(C)(=O)=O)c2F)n1 [encorafenib]
# Outline: as §1
# [7] = compound: CN(C)CC(=O)Nc1ccc2[nH]c(=O)c3ccccc3c2c1
# Outline: as §1
# [8] = compound: CN1C2=C(C3=C1C(=O)N(N=C3)CC4=CC(=CC=C4)N)SC(=C2)S(=O)C
# Outline: as §1
# saracatinib = compound: CN1CCN(CCOc2cc(OC3CCOCC3)c3c(Nc4c(Cl)ccc5c4OCO5)ncnc3c2)CC1 [saracatinib]
# Outline: as §1
# defactinib = compound: CNC(=O)c1ccc(Nc2ncc(C(F)(F)F)c(NCc3nccnc3N(C)S(C)(=O)=O)n2)cc1 [defactinib]
# Outline: as §1
# [9] = compound: CNc1nc(-c2ccc3c(N)n[nH]c3c2)cc(N2C[C@@H](C(=O)NC3CCCCC3)CC[C@H]2C)n1
# Outline: as §1
# [10] = compound: COC(=O)[C@H](CCSC)NC(=O)C1=C(C=C(C=C1)NC[C@H](CS)N)C2=CC=CC=C2
# Outline: as §1
Target,log2 fold change [1],log2 fold change (volasertib),log2 fold change [2],log2 fold change (epoxomicin),log2 fold change [3],log2 fold change [4],log2 fold change (rosiglitazone),log2 fold change [5],log2 fold change (sotrastaurin),log2 fold change (alvocidib),log2 fold change (Tubastatin A),log2 fold change [6],log2 fold change (rucaparib),log2 fold change (encorafenib),log2 fold change [7],log2 fold change [8],log2 fold change (saracatinib),log2 fold change (defactinib),log2 fold change [9],log2 fold change [10]
ZBTB10 (UniProt Q96DT7),inactive: -0.025,inactive: -0.109,inactive: 0.017,inactive: -0.033,inactive: 0.007,inactive: -0.023,inactive: 0.008,inactive: -0.105,inactive: -0.098,inactive: -0.123,inactive: -0.094,inactive: -0.151,inactive: 0.071,inactive: -0.003,,,,,,
YOD1 (UniProt Q5VVQ6),inactive: -0.099,inactive: -0.247,inactive: 0.081,inactive: 0.051,,inactive: -0.101,,active: -0.305,inactive: 0.034,,inactive: 0.072,inactive: 0.011,inactive: -0.041,inactive: 0.02,inactive: 0.043,inactive: -0.04,inactive: -0.034,inactive: -0.103,inactive: 0.011,inactive: -0.016
YME1L1 (UniProt Q96TA2),inactive: -0.017,inactive: 0.003,inactive: -0.019,inactive: -0.038,inactive: -0.005,inactive: 0.046,inactive: -0.007,inactive: -0.111,inactive: 0.032,inactive: 0.005,inactive: -0.043,inactive: -0.041,inactive: 0.004,inactive: 0.009,inactive: -0.036,inactive: 0,inactive: 0.004,inactive: 0.006,inactive: -0.028,inactive: 0.035
ZNF217 (UniProt O75362),inactive: 0.029,inactive: -0.007,inactive: 0.045,inactive: 0.075,,inactive: 0.036,,inactive: -0.081,inactive: -0.019,,inactive: -0.086,inactive: -0.029,inactive: -0.025,inactive: -0.054,inactive: 0.06,inactive: 0.237,inactive: -0.083,inactive: -0.145,inactive: -0.183,inactive: -0.067
ZFPM1 (UniProt Q8IX07),inactive: -0.008,inactive: 0.002,inactive: -0.003,inactive: 0.009,inactive: -0.261,,inactive: 0.172,,inactive: 0.008,inactive: -0.109,inactive: 0.135,inactive: -0.027,inactive: -0.038,inactive: -0.009,inactive: 0.238,inactive: -0.14,inactive: 0.131,inactive: -0.068,inactive: -0.141,inactive: 0.093
ZC3H8 (UniProt Q8N5P1),inactive: 0.181,inactive: 0.207,inactive: -0.012,inactive: -0.107,,inactive: 0.092,,active: 0.397,inactive: 0.025,,inactive: -0.034,inactive: 0.019,inactive: 0.19,inactive: -0.01,inactive: -0.047,inactive: 0.127,inactive: 0.088,inactive: 0.228,inactive: 0.012,inactive: -0.009
ZFYVE9 (UniProt O95405),inactive: -0.172,inactive: -0.496,inactive: -0.062,inactive: -0.021,inactive: -0.155,,inactive: -0.073,,inactive: 0.178,inactive: 0.042,inactive: -0.078,inactive: 0.109,inactive: -0.278,inactive: 0.162,inactive: -0.111,inactive: -0.116,inactive: 0.075,inactive: 0.003,inactive: -0.004,inactive: -0.096
ZC3H18 (UniProt Q86VM9),inactive: -0.008,inactive: -0.085,inactive: 0.032,inactive: -0.059,,inactive: 0.068,,inactive: -0.044,inactive: -0.11,,inactive: 0.129,inactive: -0.01,inactive: 0.029,inactive: -0.03,inactive: -0.039,inactive: 0.135,inactive: -0.072,inactive: -0.234,inactive: -0.136,inactive: 0.045
ZC2HC1A (UniProt Q96GY0),inactive: 0.103,inactive: 0.22,inactive: -0.042,inactive: 0.093,inactive: -0.01,inactive: 0.305,inactive: -0.037,inactive: -0.285,,inactive: 0.096,inactive: 0.156,inactive: -0.034,inactive: 0.081,inactive: -0.045,inactive: 0.016,inactive: 0.049,inactive: -0.099,inactive: 0.045,inactive: 0.021,inactive: 0.121
ZFP91 (UniProt Q96JP5),inactive: 0.104,inactive: 0.016,inactive: 0.04,inactive: -0.045,,inactive: 0.07,,inactive: 0.171,inactive: 0.105,,inactive: 0.077,inactive: -0.016,inactive: 0.113,inactive: 0.038,inactive: -0.074,inactive: 0.099,inactive: 0.036,inactive: 0.054,inactive: -0.007,inactive: 0.064
ZADH2 (UniProt Q8N4Q0),inactive: 0.153,active: 0.754,active: 0.526,inactive: 0.077,,inactive: 0.13,,inactive: 0.023,inactive: -0.015,,inactive: -0.007,inactive: -0.051,inactive: -0.071,inactive: 0.045,inactive: 0.02,inactive: -0.013,inactive: 0.005,inactive: 0.025,inactive: -0.011,inactive: 0.052
XP32 (UniProt Q5T750),inactive: 0.208,,inactive: 0.123,,,inactive: -0.532,inactive: -0.078,inactive: -0.632,,inactive: -0.144,,,inactive: -0.333,inactive: -0.603,,inactive: 0.57,inactive: -0.24,,inactive: 0.369,
ZFC3H1 (UniProt O60293),inactive: -0.075,,inactive: -0.172,,,,inactive: 0.265,,inactive: -0.042,,,,inactive: -0.302,inactive: -0.032,,,,,,
ZDHHC7 isoform 2 (UniProt Q9NXF8),inactive: 0.083,inactive: -0.059,inactive: -0.099,inactive: 0.124,,inactive: -0.363,,active: -0.415,,,inactive: -0.003,inactive: -0.016,inactive: -0.067,inactive: -0.043,inactive: 0.057,inactive: 0.02,inactive: 0.034,inactive: 0.001,inactive: -0.03,inactive: 0.019
ZDHHC5 (UniProt Q9C0B5),inactive: 0.035,inactive: 0.093,inactive: -0.052,inactive: -0.083,,inactive: -0.002,,active: 0.31,inactive: -0.069,,inactive: 0.051,inactive: 0.006,inactive: 0.086,inactive: -0.028,inactive: -0.032,inactive: -0.049,inactive: 0.034,inactive: -0.097,inactive: 0.011,inactive: 0.054
XPC (UniProt Q01831),inactive: -0.013,inactive: -0.154,,inactive: 0.052,inactive: -0.024,,,,,inactive: 0.036,,inactive: -0.01,inactive: 0.054,inactive: -0.19,inactive: -0.074,,,inactive: -0.057,,inactive: 0.003
YIPF5 isoform 3 (UniProt Q969M3),inactive: 0.088,inactive: 0.058,inactive: -0.041,inactive: 0.023,,inactive: 0.06,,inactive: -0.288,inactive: 0.034,,inactive: -0.103,inactive: 0.088,inactive: 0,inactive: 0.012,inactive: 0.014,inactive: 0.043,inactive: 0.007,inactive: -0.019,inactive: -0.115,inactive: 0.046
ZNF106 (UniProt Q9H2Y7),inactive: 0.138,inactive: 0.289,inactive: 0.014,,,,inactive: 0.021,,inactive: -0.194,,,,inactive: -0.052,inactive: -0.046,inactive: -0.063,inactive: -0.007,inactive: -0.03,inactive: -0.103,inactive: 0.093,inactive: -0.02

# 2 entries picked at random from those above, as already listed:
Target,log2 fold change [1],log2 fold change (volasertib),log2 fold change [2],log2 fold change (epoxomicin),log2 fold change [3],log2 fold change [4],log2 fold change (rosiglitazone),log2 fold change [5],log2 fold change (sotrastaurin),log2 fold change (alvocidib),log2 fold change (Tubastatin A),log2 fold change [6],log2 fold change (rucaparib),log2 fold change (encorafenib),log2 fold change [7],log2 fold change [8],log2 fold change (saracatinib),log2 fold change (defactinib),log2 fold change [9],log2 fold change [10]
ZADH2 (UniProt Q8N4Q0),inactive: 0.153,active: 0.754,active: 0.526,inactive: 0.077,,inactive: 0.13,,inactive: 0.023,inactive: -0.015,,inactive: -0.007,inactive: -0.051,inactive: -0.071,inactive: 0.045,inactive: 0.02,inactive: -0.013,inactive: 0.005,inactive: 0.025,inactive: -0.011,inactive: 0.052
YOD1 (UniProt Q5VVQ6),inactive: -0.099,inactive: -0.247,inactive: 0.081,inactive: 0.051,,inactive: -0.101,,active: -0.305,inactive: 0.034,,inactive: 0.072,inactive: 0.011,inactive: -0.041,inactive: 0.02,inactive: 0.043,inactive: -0.04,inactive: -0.034,inactive: -0.103,inactive: 0.011,inactive: -0.016
